Measured values as given in PubChem BioAssay AID2685 (National Center for Advancing Translational Sciences (NCATS), 2010).
The other results are listed elsewhere or left out. Shown are side measurements of this screen, not its main read-out; they come without a call. Most of these compounds were active or inconclusive in the main read-out, so they are no random draw. Potencies come from curve fits of mixed quality, noted in brackets.

Assay: qHTS Assay for Lipid Storage Modulators in Drosophila S3 Cells;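 for cell number change: cells counted by Cell Tracker Red CMTPX staining in the red channel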
Details: BODIPY lipid droplet fluorescence, 18-24 h; for cell number change: measured here: cell count max response, cells fed with added oleic acid
Summary of the method: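 Drosophila S3 cells loaded with oleic acid (400 uM, as added) and compounds at several concentrations; lipid droplets imaged by 488-nm laser-scanning cytometry, 500–530 nm intensity and object ratio to cell channel. Percent activity normalized to 20 uM Triacsin C.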

[1] = measured here: cell number channel AC50, cells fed with added oleic acid
[2] = measured here: lipid fluorescence (Fed channel) AC50, cells fed with added oleic acid

Compound | cell number change [%] | AC50 [1] | AC50 [2]
Cc1nn(C2CCS(=O)(=O)C2)c(C)c1CN(C)C(=O)c1ccccc1 (configuration not stated) | 40.2 | 20.6 µM [rising, single point] | 25.9 µM [rising, partial curve]
Cc1ccc(S(=O)(=O)N2CCN(C3CC4CCC3C4)CC2)cc1 (configuration not stated) | -2.78 |  | 
COc1cc(C(C)=O)ccc1OC(C)C(=O)Nc1ccc(S(=O)(=O)N2CCCC2)cc1 (configuration not stated) | 20.9 |  | 0.00517 µM [rising, full curve, poor fit]
COc1cc(NC(=O)c2ccc(Br)o2)ccc1NC(=O)c1ccccc1Cl | -34.4 | 23.1 µM [falling, partial curve, poor fit] | 
CCn1c(C(=O)N2CCCC(C(=O)NCCc3ccc(C)cc3)C2)cc2sccc21 (configuration not stated) | -18.4 |  | 
Cc1ccc(CN2CCN(/N=C/c3ccc(O)c(O)c3)CC2)cc1 | 16.1 |  | 20.6 µM [rising, partial curve]
CCCCN(CC)C(=O)CSc1nc2ccccc2c(=O)n1CC1COc2ccccc2O1 (configuration not stated) | 24.4 |  | 29.1 µM [rising, single point]
Cc1ccc(NC(=O)Nc2ccccc2C(N)=O)cc1 | 12.3 |  | 0.00651 µM [falling, full curve, poor fit]
CCCn1c(=O)c2ccccc2n2c(SCCOc3ccc(Cl)cc3)nnc12 | -3.13 |  | 0.259 µM [rising, full curve, poor fit]
O=C(Nc1c(-c2ccc(F)cc2)nc2ccccn12)c1ccc(F)cc1 | 21.5 |  | 3.66 µM [rising, partial curve, poor fit]
C=CCn1c(=S)[nH]c2cc(C(=O)Nc3ccc(OC)c(OC)c3)ccc2c1=O | 38.5 | 32.6 µM [rising, single point] | 
Cc1nc(-c2ccc(C(=O)N3CCOCC3)cc2)cs1 | -16.8 | 0.146 µM [falling, full curve, poor fit] | 
O=C(O)C1CCN(S(=O)(=O)Cc2ccccc2)CC1 | -9.8 |  | 
COC(=O)CCCCCCCCC(O)CN(C)C (configuration not stated) | 24.7 |  | 
CCN1CCN(S(=O)(=O)c2ccc(Cl)c(C(=O)N(C)Cc3cccs3)c2)CC1 | 2.24 |  | 2.59 µM [falling, single point]
COc1cccc(C(CC(=O)NCc2ccco2)NS(=O)(=O)c2ccc(C)cc2)c1OC (configuration not stated) | 90.8 | 25.9 µM [rising, partial curve] | 
Cc1cc(NC(=O)c2cc(-c3ccccc3C)nc3ccccc23)no1 | 20.9 |  | 8.2 µM [rising, partial curve]
Cn1c(COc2ccccc2)nnc1SCC(=O)Nc1ccc(N2CCOCC2)cc1 | -1.28 |  | 5.8 µM [rising, single point]
Cc1ccc(OCCOC(=O)C2CCN(S(=O)(=O)c3ccc(C)c(C)c3)CC2)cc1 | 50 | 16.4 µM [rising, single point] | 
COc1ccc2nc(C)cc(Nc3ccc(N4CCN(C)CC4)cc3)c2c1 | -32 | 14.6 µM [falling, partial curve, poor fit] | 2.06 µM [falling, partial curve]
COc1ccccc1C(CNC(=O)c1cccc(S(=O)(=O)Nc2ccc(F)cc2)c1)N(C)C (configuration not stated) | -15.3 |  | 1.64 µM [rising, partial curve]

Compound | cell number change [%] | AC50 [1] | AC50 [2]
O=C(N/C(=C/c1ccco1)C(=O)N1CCOCC1)c1ccc([N+](=O)[O-])cc1 | 2.21 |  | 
O=C(COC(=O)CNC(=O)c1ccccc1)NCCNC(=O)COC(=O)CNC(=O)c1ccccc1 | -46.1 | 14.6 µM [falling, single point] | 
O=C(CCNS(=O)(=O)c1ccc(Br)cc1)NCC1CCCO1 (configuration not stated) | 8.33 |  | 11.6 µM [falling, partial curve, poor fit]
Cc1ccc2cccc(OCC(=O)N(C)CC(=O)Nc3ccc(F)cc3)c2n1 | 6.14 |  | 20.6 µM [falling, single point]
Cn1c(SCC(=O)Nc2ccccc2[N+](=O)[O-])nnc1C(F)(F)F | 2.87 |  | 
CCCS(=O)(=O)N1CCC(C(=O)NCc2ccco2)CC1 | -36.4 | 7.31 µM [falling, partial curve] | 
CCn1c(NC(=O)c2ccc(F)cc2)c2ccccc2nc1=O |  |  | 6.51 µM [falling, single point]
O=C(CNC(=O)c1ccc(Cl)cc1Cl)OCn1nnc2ccccc2c1=O | 4 |  | 
O=C(COc1ccc(Br)cc1CO)Nc1ccc(S(=O)(=O)N2CCCC2)cc1 | 21.7 |  | 
CCC(Oc1ccccc1)C(=O)Nc1nnc(C(F)(F)F)s1 (configuration not stated) | -20.7 | 6.51 µM [falling, single point] | 5.8 µM [falling, full curve]
CCCCNC(=O)CCn1c(=O)c2ccccc2n(Cc2ccccc2C)c1=O | -1.11 |  | 1.3 µM [falling, single point]
COc1cccc(CN2C(=O)Nc3ccccc3C(=O)N2C(C)(C)C)c1 | 31.2 | 9.2 µM [rising, partial curve, poor fit] | 
CC(C)N1CCC(N2CCN(Cc3cc(F)ccc3-n3cccn3)CC2CCO)CC1 (configuration not stated) | -1.31 |  | 
COc1ccc2nc(SCC(=O)N3CCCCCC3)c(C#N)cc2c1 |  | 5.17 µM [rising, single point] | 1.16 µM [rising, partial curve, poor fit]
CCN1CCN(c2ccc(S(=O)(=O)N3CCOCC3)cc2NC(=O)c2ccc(Cl)cc2Cl)CC1 |  |  | 29.1 µM [falling, single point]
Cc1ccc(CN2CCN(CC(=O)NC(C)CCc3ccccc3)C2=O)cc1 (configuration not stated) | -51.5 | 11.6 µM [falling, partial curve] | 13 µM [falling, partial curve]
Cc1ccc(S(=O)(=O)CCC(=O)Nc2ccc3c(c2)OCO3)cc1 |  | 6.51 µM [rising, single point] | 
Cc1ccc(S(=O)(=O)N2CCN(S(=O)(=O)N3CCC(C)CC3)CC2)cc1C | 2.94 |  | 0.206 µM [falling, single point]
COC(=O)C1=NN(c2ccccc2)C2(S1)S/C(=C\c1ccccc1)C(=O)N2c1ccccc1 (configuration not stated) | 40.1 | 10.3 µM [rising, partial curve, poor fit] | 
COc1ccc(N=Nc2cnc(C)nc2-c2ccccc2)cc1 | -100 | 29.1 µM [falling, single point] | 
CCCCOc1ccccc1N | -9.58 |  | 

Reprinted at random: 3 records from the list, in no set order.
Compound | cell number change [%] | AC50 [1] | AC50 [2]
CCCCNC(=O)CCn1c(=O)c2ccccc2n(Cc2ccccc2C)c1=O | -1.11 |  | 1.3 µM [falling, single point]
COc1ccccc1C(CNC(=O)c1cccc(S(=O)(=O)Nc2ccc(F)cc2)c1)N(C)C (configuration not stated) | -15.3 |  | 1.64 µM [rising, partial curve]
CCCCOc1ccccc1N | -9.58 |  | 

(further entries)

Compound | cell number change [%] | AC50 [1] | AC50 [2]
Cc1ccc(C(=O)NCCCNC(=O)c2ccccc2C)cn1 | 8.4 |  | 6.51 µM [falling, single point]
NC(=O)c1ccsc1NC(=O)COC(=O)c1ccc(Cl)cc1 | 10.4 |  | 0.0146 µM [rising, full curve, poor fit]
CC(C)Cc1nnc(NC(=O)Nc2ccccc2)s1 | -38.1 | 18.4 µM [falling, single point] | 18.4 µM [falling, single point]
O=C(CCCN=C1NS(=O)(=O)c2ccccc21)OCc1cc([N+](=O)[O-])cc2c1OCOC2 | -14.6 |  | 
CC(C)N(Cc1ccccc1)C(=O)COC(=O)C1CCN(c2ccc(C(F)(F)F)cn2)CC1 |  |  | 4.11 µM [falling, single point]
CC(C)CCn1c(-c2nonc2N)nc2ccccc21 | -43.2 | 11.6 µM [falling, partial curve] | 13 µM [falling, partial curve]
CCOc1cc(C(=O)Nc2ccc(C(=O)NCCN(CC)CC)cc2)ccc1OCC(=O)N1CCOCC1 | -20.5 |  | 
O=C(Cn1cnc2c(NC(=O)OCc3ccccc3)ncnc21)NCCN1CCOCC1 | 27.5 |  | 0.259 µM [rising, partial curve]
Cc1cc(Nc2ccc(N(C)C)cc2)n2ncnc2n1 |  |  | 29.1 µM [rising, single point]
CCCCn1c(N)c(N(CC)C(=O)c2ccc(C)cc2)c(=O)[nH]c1=O | 21.4 |  | 
COC(=O)[C@]1(CC(C)C)N[C@H](c2ccc(-c3ccc(F)cc3)c(OC)c2)[C@@H]2C(=O)N(C)C(=O)[C@@H]21 | -40.3 | 29.1 µM [falling, single point] | 16.4 µM [falling, partial curve]
O=C(COc1c(Br)cc(Br)c2cccnc12)N1CCc2ccccc2C1 | -7.64 | 2.91 µM [rising, single point] | 3.66 µM [rising, partial curve]
CC(C)CC(=O)Nc1sc2c(c1C#N)CC(C)(C)NC2(C)C | 17.9 |  | 
CC(=O)c1cccc(OCC(O)CN2CCN(C(=O)c3ccco3)CC2)c1 (configuration not stated) | 15.2 |  | 6.51 µM [falling, single point]
Cc1ccccc1C(=O)NNC(=S)NC(=O)c1ccc(Cl)cc1Cl | 35.1 | 3.66 µM [rising, full curve, poor fit] | 20.6 µM [rising, partial curve]
CN(C)c1ccc(CNc2nc(-c3ccccc3)nn2S(C)(=O)=O)cc1 | -3.34 |  | 
CC(=O)c1ccc(S(=O)(=O)NCCC(=O)OCC(=O)N(Cc2ccccc2)C(C)(C)C)cc1 | -3.24 |  | 25.9 µM [rising, partial curve, poor fit]
CCOC(=O)c1ccc(Nc2nc(C(=O)OCC)nc3ccccc23)cc1 |  |  | 0.461 µM [falling, full curve, poor fit]
Cc1ccc(/C=C2\CCn3c2nc2cc(C(=O)O)ccc2c3=O)c(C)c1 | 14.1 |  | 
C=CCn1c(CCCNC(=O)c2ccccc2OC)nc2ccccc21 | -40.2 | 25.9 µM [falling, single point] | 16.4 µM [falling, partial curve, poor fit]
